Assay results reported in publication doi:10.1101/2022.06.21.497065.
These are yes or no findings as the source states them, for the method shown. For some assays here: Binding seen in cells or lysates may run through a third protein. Some results given as binding are weak or reduced against the parent protein; the word gives no strength.

The chains behind the UniProt entries cited, without tags or fusion partners.
UniProt P63158: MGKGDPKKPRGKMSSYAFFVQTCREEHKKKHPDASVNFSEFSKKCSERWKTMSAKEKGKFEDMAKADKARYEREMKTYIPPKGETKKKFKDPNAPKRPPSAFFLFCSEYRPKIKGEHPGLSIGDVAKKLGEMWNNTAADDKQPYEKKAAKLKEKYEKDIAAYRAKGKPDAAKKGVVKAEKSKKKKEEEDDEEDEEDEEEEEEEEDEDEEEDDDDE
UniProt P04406: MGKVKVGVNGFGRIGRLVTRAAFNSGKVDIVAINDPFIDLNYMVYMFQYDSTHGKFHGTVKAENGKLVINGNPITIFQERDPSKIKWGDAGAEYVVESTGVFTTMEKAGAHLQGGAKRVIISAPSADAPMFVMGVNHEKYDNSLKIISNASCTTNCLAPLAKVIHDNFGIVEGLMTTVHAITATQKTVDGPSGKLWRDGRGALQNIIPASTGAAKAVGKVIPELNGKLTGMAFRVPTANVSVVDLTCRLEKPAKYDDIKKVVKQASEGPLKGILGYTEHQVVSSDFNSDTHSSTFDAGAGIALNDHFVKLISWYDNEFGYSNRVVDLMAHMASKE

Key:
[1] = molecular target: T1, Siah1 recombinant protein (UniProt Q8IUQ4); assay: co-IP
T1 sequence: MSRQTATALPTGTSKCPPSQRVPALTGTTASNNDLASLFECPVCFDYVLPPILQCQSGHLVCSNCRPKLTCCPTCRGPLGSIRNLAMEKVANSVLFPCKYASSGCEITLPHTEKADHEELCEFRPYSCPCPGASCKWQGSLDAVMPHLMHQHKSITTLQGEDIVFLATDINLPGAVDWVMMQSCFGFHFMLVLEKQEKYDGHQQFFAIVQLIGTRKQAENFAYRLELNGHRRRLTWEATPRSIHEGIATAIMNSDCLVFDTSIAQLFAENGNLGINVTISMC

HMGB1 = HMGB1 (UniProt P63158); assay: co-IP

| Molecule | binding [1] | binding (HMGB1) |
| --- | --- | --- |
| GAPDH recombinant protein (from UniProt P04406 1-335) | binds | – |
| HMGB2 (protein, UniProt P30681 1-210) MGKGDPNKPRGKMSSYAFFVQTCREEHKKKHPDSSVNFAEFSKKCSERWKTMSAKEKSKFEDLAKSDKARYDREMKNYVPPKGDKKGKKKDPNAPKRPPSAFFLFCSENRPKIKIEHPGLSIGDTAKKLGEMWSEQSAKDKQPYEQKAAKLKEKYEKDIAAYRAKGKSEAGKKGPGRPTGSKKKNEPEDEEEEEEEEEEEDDEEEEEDEE | – | binds |
